Test results reported in PubChem BioAssay AID463183 (Sanford-Burnham Center for Chemical Genomics, 2010).
Some of the results follow. The main result of the screen is listed elsewhere. These columns were measured beside it and carry no call. Most of these compounds were active or inconclusive in the main read-out, so they are no random draw.

Assay: blockers of oleate-driven lipid droplets in liver cells – imaging, AML12 mouse hepatocytes, single concentration, high-content, confirmation (AID 463183);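 further: cells counted after overnight compound exposure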
Conditions: BODIPY lipid droplet imaging, measured here: cell count, cytotoxicity, at 5.2 µM, droplets induced with 100 µM oleic acid
Cc1cc(C)n(-c2nc(N(c3ccccc3)c3ccccc3)nc(-n3nc(C)cc3C)n2)n1 showed a cell count of 1250 cells. Compound Cc1ccc(CNC(=O)c2ccc3nc4[nH]c5ccccc5c4nc3c2)cc1 has a cell count of 1640 cells. Compound CCCCOc1ccc(C(=O)Nc2cc(C)c(OCC(=O)N3CCOCC3)c(C)c2)cc1 has a cell count of 1560 cells. With c1ccc2c(c1)CCCC2C1=NCCN1 (stereo unspecified) the cell count was 1620 cells. With COc1cc(C(=S)N2CCOCC2)cc(OC)c1OC(=O)c1ccccc1[N+](=O)[O-] the cell count was 1600 cells. Work on CCOc1cc(CNC(=O)CCCn2c(=O)c3cccn3c3cccnc32)cc(OCC)c1OCC yielded a cell count of 1540 cells.
